The text below walks through data of US12194082B2, “Compositions and methods for treatment of homocystinuria” (THE REGENTS OF THE UNIVERSITY OF COLORADO, priority 2016, dated 2025).

A short description of this data set: Total weight and weight gain of treated KO mice. In kind it is in vivo.

“20NHS PEG-htCBS C15S: htCBS C15S PEGylated with ME-200GS PEG (20 kDa linear NHS ester-activated PEG)”: the “weight gain vs both control groups” value (KO male and female mice, day 21 to 36) was “significantly lower”. For the same substance, the total weight entry (KO male mice, 7.5 mg/kg 3x weekly, day 21) was “about 10 g”.
